PubChem BioAssay AID504795, Drosophila RNAi Screening Center | 2011

Assay: 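Fly genes whose loss alters neurite growth or neural cell form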 (primary screen)
Cells: primary Drosophila neurons and glia
Reagent: long dsRNA against Drosophila genes, 250 ng dsRNA per well
Time to read-out: one week
Measurement: 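GFP-labelled neurons and glia imaged live by automated microscope one week after 250 ng dsRNA per well; morphology scored by eye as descriptive phenotype terms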
This is not the whole library: the list holds selected reagents. 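Every listed dsRNA shows some phenotype; how reagents were selected for listing is not stated.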 Reagents against one gene are numbered here. Names joined by + are all predicted targets of the reagent.

phenotype seen, replicate 1 | phenotype seen, replicate 2 | gene | reagent
sheet-like cell extensions | – | Tlk | 1
axon bundles split apart | – | MTF-1 | 1
sheet-like cell extensions | – | caps | 1
too many neurite branches | – | Inx2 | 1
beaded; swollen axons | – | RpS15 | 1
beaded; swollen axons | too many neurite branches | Muc91C | 1
too many neurite branches | – | Usp5 | 1
too many neurite branches | – | CG13056 | 1
abnormal cell clusters | – | ps | 1
axon bundles split apart | abnormal cell clusters | CG15155 | 1
abnormal cell clusters | – | Dh44-R2 | 1
too many neurite branches | – | rg | 1
weaker green signal | – | Sin3A | 1
axon bundles split apart | – | CR31958 | 1
too many neurite branches | – | Slmap | 1
too many neurite branches | – | mRpL55 | 1
abnormal cell clusters | – | Dsp1 | 1
reduced axon outgrowth | – | Hsepi | 1
axon bundles split apart | – | CG8300 | 1
too many neurite branches | – | Dcr-2 | 1
too many neurite branches | – | Fer2LCH | 1
reduced axon outgrowth | – | CG4860 | 1
axon bundles split apart | – | CG4860 | 2
too many neurite branches | – | CG32453 | 1
abnormal cell clusters | – | Cpr49Af | 1
abnormal cell clusters | – | Cyp6a15Psi | 1
axon bundles split apart | – | Hrb87F | 1
abnormal cell clusters | – | zpg | 1
axon bundles split apart | – | CG7785 | 1
abnormal cell clusters | – | Ddr | 1
axon bundles split apart | – | Ddr | 2
reduced axon outgrowth | – | CG13247 | 1
sheet-like cell extensions | – | Pde8 | 1
weaker green signal | – | CG15167 | 1
axon bundles split apart | – | TwdlT | 1
reduced axon outgrowth | – | kis | 1
sheet-like cell extensions | – | brv1 | 1
too many neurite branches | – | orion | 1
abnormal cell clusters | – | ubl | 1
axon bundles split apart | – | CG10005 | 1
sheet-like cell extensions | – | Act88F | 1
sheet-like cell extensions | – | CG11686 | 1
cell fragments present | – | CG6709 + Hez | 1
too many neurite branches | – | Act57B | 1
reduced axon outgrowth | – | san | 1
axon bundles split apart | – | deltaCOP | 1
abnormal cell clusters | – | CG13108 | 1
axon bundles split apart | – | RpLP0 | 1
too many neurite branches | too many neurite branches | RpLP0 | 2
too many neurite branches | – | CG42502 + CG10570 | 1
beaded; swollen axons | – | jeb | 1
axon bundles split apart | – | CG15657 | 1
reduced axon outgrowth | – | CG18814 | 1
cell fragments present | – | CG32507 | 1
too many neurite branches | – | GluClalpha | 1
axon bundles split apart | – | CG31848 | 1
sheet-like cell extensions | – | CG11854 | 1
too many neurite branches | – | Muc11A | 1
too many neurite branches | beaded; swollen axons | CG14143 | 1
axon bundles split apart | – | Osi2 | 1
too many neurite branches | – | CG7889 | 1
too many neurite branches | – | robl62A | 1
too many neurite branches | – | msk | 1
too many neurite branches | – | CG1722 | 1
abnormal cell clusters | – | CG8407 | 1
abnormal cell clusters | – | CCHa1 | 1
reduced axon outgrowth | – | CG12877 | 1
axon bundles split apart | – | CG2656 | 1
axon bundles split apart | – | Ser | 1
axon bundles split apart | – | CG14245 | 1
cell fragments present | – | CG7963 | 1
cell fragments present | – | CG13033 | 1
too many neurite branches | – | Nup133 | 1
too many neurite branches | – | CG16854 | 1

Entries above whose target name begins with M or m:
phenotype seen, replicate 1 | phenotype seen, replicate 2 | gene | reagent
axon bundles split apart | – | MTF-1 | 1
beaded; swollen axons | too many neurite branches | Muc91C | 1
too many neurite branches | – | mRpL55 | 1
too many neurite branches | – | Muc11A | 1
too many neurite branches | – | msk | 1
